# Some of the results follow.
# Chains of the proteins cited; added tags and fusions are not shown. Lines headed by an entry give the natural chain unless they say otherwise; changes in a name come on top.
# UniProt Q9BTE6: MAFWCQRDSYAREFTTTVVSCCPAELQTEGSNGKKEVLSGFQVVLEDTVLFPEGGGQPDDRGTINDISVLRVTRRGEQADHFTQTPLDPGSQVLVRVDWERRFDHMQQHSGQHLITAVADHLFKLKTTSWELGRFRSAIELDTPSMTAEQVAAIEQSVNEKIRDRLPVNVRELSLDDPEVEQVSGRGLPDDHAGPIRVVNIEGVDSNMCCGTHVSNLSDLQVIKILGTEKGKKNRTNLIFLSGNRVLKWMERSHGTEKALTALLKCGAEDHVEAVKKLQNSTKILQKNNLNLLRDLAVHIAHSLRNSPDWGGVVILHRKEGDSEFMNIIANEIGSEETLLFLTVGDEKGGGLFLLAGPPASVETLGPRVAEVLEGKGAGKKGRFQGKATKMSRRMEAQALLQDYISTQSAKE
# UniProt Q15057: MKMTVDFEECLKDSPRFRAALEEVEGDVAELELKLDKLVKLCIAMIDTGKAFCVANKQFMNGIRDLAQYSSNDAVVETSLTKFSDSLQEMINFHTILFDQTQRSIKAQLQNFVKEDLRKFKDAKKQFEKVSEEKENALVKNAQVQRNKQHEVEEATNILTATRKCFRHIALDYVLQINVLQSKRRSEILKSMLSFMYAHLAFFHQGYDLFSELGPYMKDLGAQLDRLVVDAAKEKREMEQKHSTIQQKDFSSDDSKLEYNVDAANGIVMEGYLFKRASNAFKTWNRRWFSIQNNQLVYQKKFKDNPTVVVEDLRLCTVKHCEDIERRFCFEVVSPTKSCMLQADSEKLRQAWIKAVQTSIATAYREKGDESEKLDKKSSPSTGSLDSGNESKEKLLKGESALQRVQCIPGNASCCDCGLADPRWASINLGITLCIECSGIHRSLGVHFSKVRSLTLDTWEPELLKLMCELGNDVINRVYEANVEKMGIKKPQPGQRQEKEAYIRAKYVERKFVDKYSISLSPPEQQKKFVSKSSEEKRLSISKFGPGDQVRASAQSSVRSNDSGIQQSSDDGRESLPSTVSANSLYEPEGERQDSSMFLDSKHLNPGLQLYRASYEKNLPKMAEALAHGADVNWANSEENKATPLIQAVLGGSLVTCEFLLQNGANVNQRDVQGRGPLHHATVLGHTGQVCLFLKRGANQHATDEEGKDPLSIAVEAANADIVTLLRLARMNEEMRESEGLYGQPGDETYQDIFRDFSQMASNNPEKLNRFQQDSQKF
# UniProt Q9NUJ1: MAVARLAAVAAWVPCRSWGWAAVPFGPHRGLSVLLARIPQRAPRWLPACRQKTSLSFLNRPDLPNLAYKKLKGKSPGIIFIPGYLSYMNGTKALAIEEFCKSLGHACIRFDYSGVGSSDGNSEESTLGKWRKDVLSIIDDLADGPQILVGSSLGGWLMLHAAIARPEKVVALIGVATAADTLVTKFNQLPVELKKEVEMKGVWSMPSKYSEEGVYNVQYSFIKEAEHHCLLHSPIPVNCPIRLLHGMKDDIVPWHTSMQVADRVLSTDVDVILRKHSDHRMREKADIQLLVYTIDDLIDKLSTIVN
# UniProt P21399: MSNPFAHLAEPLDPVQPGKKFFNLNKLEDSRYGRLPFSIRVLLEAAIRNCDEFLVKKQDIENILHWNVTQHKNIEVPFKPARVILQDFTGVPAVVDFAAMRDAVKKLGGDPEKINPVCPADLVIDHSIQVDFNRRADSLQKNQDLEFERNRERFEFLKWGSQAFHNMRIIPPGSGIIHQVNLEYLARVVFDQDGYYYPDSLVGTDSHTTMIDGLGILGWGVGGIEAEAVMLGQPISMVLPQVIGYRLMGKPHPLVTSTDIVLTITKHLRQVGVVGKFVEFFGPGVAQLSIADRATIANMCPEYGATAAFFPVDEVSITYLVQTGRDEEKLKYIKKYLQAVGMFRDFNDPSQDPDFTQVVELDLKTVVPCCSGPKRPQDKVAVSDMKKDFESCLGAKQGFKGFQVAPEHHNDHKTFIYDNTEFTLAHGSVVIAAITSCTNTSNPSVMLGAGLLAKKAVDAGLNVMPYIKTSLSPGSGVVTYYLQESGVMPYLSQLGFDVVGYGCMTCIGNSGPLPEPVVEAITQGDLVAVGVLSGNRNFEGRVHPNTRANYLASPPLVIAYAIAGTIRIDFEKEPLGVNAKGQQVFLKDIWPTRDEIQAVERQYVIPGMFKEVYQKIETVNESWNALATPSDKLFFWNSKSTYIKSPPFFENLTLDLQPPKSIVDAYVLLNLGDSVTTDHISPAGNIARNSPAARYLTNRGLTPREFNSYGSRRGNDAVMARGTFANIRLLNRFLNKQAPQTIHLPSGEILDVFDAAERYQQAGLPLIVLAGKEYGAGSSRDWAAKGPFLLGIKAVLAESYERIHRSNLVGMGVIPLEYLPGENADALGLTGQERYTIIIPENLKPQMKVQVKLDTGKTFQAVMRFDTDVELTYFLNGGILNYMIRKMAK
# UniProt P49748: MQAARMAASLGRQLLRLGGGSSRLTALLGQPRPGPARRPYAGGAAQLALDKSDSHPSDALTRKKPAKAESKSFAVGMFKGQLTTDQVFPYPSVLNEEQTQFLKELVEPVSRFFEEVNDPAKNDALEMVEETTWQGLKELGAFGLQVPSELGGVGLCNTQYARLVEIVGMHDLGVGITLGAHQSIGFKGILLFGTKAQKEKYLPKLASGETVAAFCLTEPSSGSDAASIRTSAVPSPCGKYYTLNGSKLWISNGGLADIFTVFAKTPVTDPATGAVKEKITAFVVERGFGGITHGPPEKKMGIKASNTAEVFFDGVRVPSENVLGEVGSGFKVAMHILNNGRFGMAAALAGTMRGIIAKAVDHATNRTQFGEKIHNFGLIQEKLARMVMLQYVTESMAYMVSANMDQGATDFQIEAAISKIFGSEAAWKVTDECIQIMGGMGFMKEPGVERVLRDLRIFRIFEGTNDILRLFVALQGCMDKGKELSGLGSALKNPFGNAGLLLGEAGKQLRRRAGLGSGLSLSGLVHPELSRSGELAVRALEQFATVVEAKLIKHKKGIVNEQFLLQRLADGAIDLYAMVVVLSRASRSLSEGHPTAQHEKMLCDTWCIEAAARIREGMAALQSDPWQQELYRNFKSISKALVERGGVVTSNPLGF
# UniProt Q6UWZ7: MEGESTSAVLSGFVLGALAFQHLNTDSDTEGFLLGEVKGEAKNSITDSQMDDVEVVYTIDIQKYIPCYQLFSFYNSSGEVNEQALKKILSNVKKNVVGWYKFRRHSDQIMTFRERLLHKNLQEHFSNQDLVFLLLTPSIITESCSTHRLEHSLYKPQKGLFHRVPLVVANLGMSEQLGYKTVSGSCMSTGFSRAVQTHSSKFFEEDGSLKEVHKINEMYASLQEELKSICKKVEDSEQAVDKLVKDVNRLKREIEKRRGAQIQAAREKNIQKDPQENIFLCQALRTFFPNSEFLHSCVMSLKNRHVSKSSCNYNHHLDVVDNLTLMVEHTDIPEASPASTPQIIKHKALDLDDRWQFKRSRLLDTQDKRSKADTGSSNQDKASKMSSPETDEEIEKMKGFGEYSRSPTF
# UniProt Q9NP58: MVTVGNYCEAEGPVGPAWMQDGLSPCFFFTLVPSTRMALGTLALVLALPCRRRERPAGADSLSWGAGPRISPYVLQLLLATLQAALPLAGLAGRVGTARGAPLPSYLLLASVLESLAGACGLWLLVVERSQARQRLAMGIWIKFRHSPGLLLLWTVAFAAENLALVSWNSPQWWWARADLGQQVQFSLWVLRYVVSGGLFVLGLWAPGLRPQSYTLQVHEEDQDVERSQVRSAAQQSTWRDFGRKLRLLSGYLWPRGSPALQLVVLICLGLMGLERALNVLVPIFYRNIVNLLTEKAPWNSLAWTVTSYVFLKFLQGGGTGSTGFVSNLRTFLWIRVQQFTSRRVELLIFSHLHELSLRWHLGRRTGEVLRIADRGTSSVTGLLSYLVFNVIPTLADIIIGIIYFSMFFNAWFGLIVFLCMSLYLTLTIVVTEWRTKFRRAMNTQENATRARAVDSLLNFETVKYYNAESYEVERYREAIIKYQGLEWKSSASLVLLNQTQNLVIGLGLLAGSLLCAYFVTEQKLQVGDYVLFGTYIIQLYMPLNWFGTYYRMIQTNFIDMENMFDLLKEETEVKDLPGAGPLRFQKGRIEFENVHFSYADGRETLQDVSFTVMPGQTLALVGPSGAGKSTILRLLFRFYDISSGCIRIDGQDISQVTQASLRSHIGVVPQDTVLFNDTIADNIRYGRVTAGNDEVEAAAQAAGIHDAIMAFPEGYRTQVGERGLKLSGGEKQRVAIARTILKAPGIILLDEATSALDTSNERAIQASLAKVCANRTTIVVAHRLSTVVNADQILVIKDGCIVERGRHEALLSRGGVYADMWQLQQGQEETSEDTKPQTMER
# UniProt Q9H7C9: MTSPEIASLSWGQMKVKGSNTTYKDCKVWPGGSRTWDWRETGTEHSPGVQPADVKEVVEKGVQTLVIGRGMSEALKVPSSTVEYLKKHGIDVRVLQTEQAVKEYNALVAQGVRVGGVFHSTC
# UniProt Q4L235: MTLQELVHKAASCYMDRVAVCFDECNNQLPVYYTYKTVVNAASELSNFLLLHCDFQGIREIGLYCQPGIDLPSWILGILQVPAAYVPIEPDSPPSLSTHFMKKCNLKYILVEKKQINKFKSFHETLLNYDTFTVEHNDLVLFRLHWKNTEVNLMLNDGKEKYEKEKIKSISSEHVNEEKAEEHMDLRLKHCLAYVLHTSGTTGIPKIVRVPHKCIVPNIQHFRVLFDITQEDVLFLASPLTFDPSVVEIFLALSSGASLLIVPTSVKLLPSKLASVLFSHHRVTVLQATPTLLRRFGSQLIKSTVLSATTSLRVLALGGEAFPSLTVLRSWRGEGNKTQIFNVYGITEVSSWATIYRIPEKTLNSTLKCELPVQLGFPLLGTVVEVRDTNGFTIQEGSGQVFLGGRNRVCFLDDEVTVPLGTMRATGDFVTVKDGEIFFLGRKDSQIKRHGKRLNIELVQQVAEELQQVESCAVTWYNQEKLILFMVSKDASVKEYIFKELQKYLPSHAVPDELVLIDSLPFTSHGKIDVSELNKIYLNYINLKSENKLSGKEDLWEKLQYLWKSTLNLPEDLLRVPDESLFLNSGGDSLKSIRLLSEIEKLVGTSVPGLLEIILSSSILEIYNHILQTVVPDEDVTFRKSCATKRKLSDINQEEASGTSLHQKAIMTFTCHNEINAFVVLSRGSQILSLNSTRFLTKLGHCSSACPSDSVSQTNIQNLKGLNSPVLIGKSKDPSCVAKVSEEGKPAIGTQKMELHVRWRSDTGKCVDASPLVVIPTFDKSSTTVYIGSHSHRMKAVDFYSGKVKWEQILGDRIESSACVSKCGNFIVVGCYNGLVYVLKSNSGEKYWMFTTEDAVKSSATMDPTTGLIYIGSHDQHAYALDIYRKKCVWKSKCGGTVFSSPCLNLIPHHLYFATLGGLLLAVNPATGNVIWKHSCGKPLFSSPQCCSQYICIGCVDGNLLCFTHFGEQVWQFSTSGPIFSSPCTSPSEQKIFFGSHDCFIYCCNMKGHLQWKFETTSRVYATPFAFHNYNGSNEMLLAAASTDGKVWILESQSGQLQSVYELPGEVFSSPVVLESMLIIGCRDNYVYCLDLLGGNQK
# UniProt Q9NUT2: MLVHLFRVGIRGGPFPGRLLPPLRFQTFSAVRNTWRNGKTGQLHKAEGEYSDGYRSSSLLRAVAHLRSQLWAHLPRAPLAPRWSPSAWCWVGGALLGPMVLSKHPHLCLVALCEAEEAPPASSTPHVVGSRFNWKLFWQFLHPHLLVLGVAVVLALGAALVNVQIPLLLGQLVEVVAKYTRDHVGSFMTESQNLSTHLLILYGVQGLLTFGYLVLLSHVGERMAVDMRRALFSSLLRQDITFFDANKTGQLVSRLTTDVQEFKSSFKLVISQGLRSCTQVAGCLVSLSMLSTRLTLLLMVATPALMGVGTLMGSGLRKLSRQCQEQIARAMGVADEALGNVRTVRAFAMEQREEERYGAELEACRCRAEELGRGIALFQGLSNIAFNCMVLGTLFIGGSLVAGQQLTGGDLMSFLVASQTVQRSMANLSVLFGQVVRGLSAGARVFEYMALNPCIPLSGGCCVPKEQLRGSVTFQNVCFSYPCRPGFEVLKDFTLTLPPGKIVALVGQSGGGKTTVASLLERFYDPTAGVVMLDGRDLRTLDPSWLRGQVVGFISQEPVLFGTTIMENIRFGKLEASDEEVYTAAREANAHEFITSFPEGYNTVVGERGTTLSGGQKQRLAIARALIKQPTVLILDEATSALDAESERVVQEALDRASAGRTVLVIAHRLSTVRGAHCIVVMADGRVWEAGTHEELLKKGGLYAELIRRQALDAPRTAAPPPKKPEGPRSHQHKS
# Legend:
# Assay in all cases: log2 fold change, soluble protein after heating vs DMSO (PISA); higher = thermal stabilisation; K562 lysate, 10 uM; active = over 0.2 and 3.5 SD of the protein, either way, in both replicates (recomputed)
# alvocidib = compound: CN1CC[C@H](c2c(O)cc(O)c3c(=O)cc(-c4ccccc4Cl)oc23)[C@H](O)C1 [alvocidib]
# In short: (§1)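 Quantification was by TMTpro 16plex LC-MS/MS with equalised channel sums, applied to the supernatant after 21,000xg for 90 min. Samples were crude K562 extract at 1 mg/mL protein in PBS pH 7.4 with 1 mM MgCl2, treated with 10 μM compound for 30 min, heated for 3 min across 48°C-58°C, pooled and brought to 0.5% NP-40 at 4°C. Values are log-two fold changes in thermal stability relative to solvent controls, from duplicates.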
# Tubastatin A = compound: CN1CCc2c(c3ccccc3n2Cc2ccc(C(=O)NO)cc2)C1 [Tubastatin A]
# In short: as §1
# [1] = compound: CNC(=O)C1=CC=CC=C1NC2=NC(=NC=C2Cl)NC3=C(C=C(C=C3)N4CCOCC4)OC
# In short: as §1
# defactinib = compound: CNC(=O)c1ccc(Nc2ncc(C(F)(F)F)c(NCc3nccnc3N(C)S(C)(=O)=O)n2)cc1 [defactinib]
# In short: as §1
# [2] = compound: CNc1nc(-c2ccc3c(N)n[nH]c3c2)cc(N2C[C@@H](C(=O)NC3CCCCC3)CC[C@H]2C)n1
# In short: as §1
# encorafenib = compound: COC(=O)N[C@@H](C)CNc1nccc(-c2cn(C(C)C)nc2-c2cc(Cl)cc(NS(C)(=O)=O)c2F)n1 [encorafenib]
# In short: as §1
# [3] = compound: COC(=O)[C@H](CCSC)NC(=O)C1=C(C=C(C=C1)NC[C@H](CS)N)C2=CC=CC=C2
# In short: as §1
# alisertib = compound: COc1cc(Nc2ncc3c(n2)-c2ccc(Cl)cc2C(c2c(F)cccc2OC)=NC3)ccc1C(=O)O [alisertib]
# In short: as §1
# [4] = compound: COc1cc2nc(-c3cc(F)ccc3O)nc(N[C@@H]3CNC[C@H]3C(C)(C)O)c2cc1OC
# In short: as §1
# gefitinib = compound: COc1cc2ncnc(Nc3ccc(F)c(Cl)c3)c2cc1OCCCN1CCOCC1 [gefitinib]
# In short: as §1
# lapatinib = compound: CS(=O)(=O)CCNCc1ccc(-c2ccc3ncnc(Nc4ccc(OCc5cccc(F)c5)c(Cl)c4)c3c2)o1 [lapatinib]
# In short: as §1
# pictilisib = compound: CS(=O)(=O)N1CCN(Cc2cc3nc(-c4cccc5[nH]ncc45)nc(N4CCOCC4)c3s2)CC1 [pictilisib]
# In short: as §1
# crizotinib = compound: C[C@@H](Oc1cc(-c2cnn(C3CCNCC3)c2)cnc1N)c1c(Cl)ccc(F)c1Cl [crizotinib]
# In short: as §1
# [5] = compound: C[C@H](C1=CC=C(C=C1)C(=O)NC2=C3C=CNC3=NC=C2)N
# In short: as §1
# duvelisib = compound: C[C@H](Nc1ncnc2nc[nH]c12)c1cc2cccc(Cl)c2c(=O)n1-c1ccccc1 [duvelisib]
# In short: as §1
# gandotinib = compound: Cc1cc(Nc2cc(CN3CCOCC3)c3nc(C)c(Cc4ccc(Cl)cc4F)n3n2)n[nH]1 [gandotinib]
# In short: as §1
# tozasertib = compound: Cc1cc(Nc2cc(N3CCN(C)CC3)nc(Sc3ccc(NC(=O)C4CC4)cc3)n2)n[nH]1 [tozasertib]
# In short: as §1
# doramapimod = compound: Cc1ccc(-n2nc(C(C)(C)C)cc2NC(=O)Nc2ccc(OCCN3CCOCC3)c3ccccc23)cc1 [doramapimod]
# In short: as §1
# bafetinib = compound: Cc1ccc(NC(=O)c2ccc(CN3CC[C@H](N(C)C)C3)c(C(F)(F)F)c2)cc1Nc1nccc(-c2cncnc2)n1 [bafetinib]
# In short: as §1
# [6] = compound: Cc1cccc(CC(=O)N2CCc3c2ccc(-c2cn(C)c4ncnc(N)c24)c3F)n1
# In short: as §1
Target,log2 fold change (alvocidib),log2 fold change (Tubastatin A),log2 fold change [1],log2 fold change (defactinib),log2 fold change [2],log2 fold change (encorafenib),log2 fold change [3],log2 fold change (alisertib),log2 fold change [4],log2 fold change (gefitinib),log2 fold change (lapatinib),log2 fold change (pictilisib),log2 fold change (crizotinib),log2 fold change [5],log2 fold change (duvelisib),log2 fold change (gandotinib),log2 fold change (tozasertib),log2 fold change (doramapimod),log2 fold change (bafetinib),log2 fold change [6]
ABCA4 (UniProt P78363),inactive: -0.047,inactive: 0.135,inactive: 0.013,inactive: 0.004,inactive: 0.246,inactive: -0.066,inactive: 0.018,inactive: -0.058,inactive: 0.096,inactive: 0.065,inactive: -0.038,inactive: -0.012,inactive: -0.093,inactive: -0.11,inactive: 0.024,inactive: 0.099,inactive: 0.034,inactive: -0.026,inactive: -0.025,inactive: 0.048
AARSD1 isoform 3 (UniProt Q9BTE6),inactive: 0.046,inactive: -0.034,inactive: -0.036,inactive: -0.012,inactive: -0.053,inactive: -0.021,inactive: 0.148,inactive: 0.001,inactive: 0.014,inactive: 0,inactive: 0.009,inactive: -0.025,inactive: 0.001,inactive: 0.049,inactive: 0.002,inactive: -0.122,inactive: 0.025,inactive: 0.022,inactive: -0.023,inactive: -0.009
ACAP2 (UniProt Q15057),inactive: 0.013,inactive: -0.023,inactive: 0.001,inactive: -0.016,inactive: -0.019,inactive: -0.007,inactive: 0.101,inactive: 0.005,inactive: 0.01,inactive: -0.013,inactive: -0.035,inactive: 0.004,inactive: 0.011,inactive: 0.032,inactive: 0.018,inactive: -0.085,inactive: -0.016,inactive: -0.011,inactive: -0.039,inactive: -0.024
ABHD10 (UniProt Q9NUJ1),inactive: 0.007,inactive: 0.011,inactive: -0.002,inactive: -0.025,inactive: 0.042,inactive: -0.002,inactive: -0.045,inactive: -0.002,inactive: -0.019,inactive: 0.02,inactive: 0.02,inactive: -0.002,inactive: 0.032,inactive: 0.046,inactive: -0.007,inactive: 0.008,inactive: 0.028,inactive: -0.063,inactive: -0.043,inactive: -0.035
ACO1 (UniProt P21399),inactive: 0.021,inactive: 0.019,inactive: 0.006,inactive: -0.006,inactive: -0.048,inactive: 0.005,inactive: -0.05,inactive: -0.001,inactive: 0.001,inactive: -0.008,inactive: -0.006,inactive: -0.015,inactive: 0.038,inactive: -0.042,inactive: -0.004,inactive: -0.017,inactive: 0.037,inactive: 0.008,inactive: 0.032,inactive: -0.012
ABHD16A (UniProt O95870),inactive: 0.036,inactive: 0.066,inactive: -0.077,inactive: 0.009,inactive: 0.054,inactive: -0.074,active: 0.245,inactive: -0.029,inactive: -0.004,inactive: -0.021,inactive: 0.032,inactive: 0.028,inactive: 0.018,inactive: 0.006,inactive: -0.078,inactive: 0.081,inactive: -0.072,inactive: 0.013,inactive: 0.018,inactive: -0.021
ACADVL isoform 3 (UniProt P49748),inactive: -0.009,inactive: 0.032,inactive: -0.075,inactive: -0.033,inactive: 0.042,inactive: -0.008,inactive: 0.014,inactive: -0.015,inactive: -0.002,inactive: 0.01,inactive: -0.095,inactive: 0.015,inactive: 0.002,inactive: -0.032,inactive: 0.103,inactive: 0.044,inactive: -0.015,inactive: -0.002,inactive: -0.009,inactive: 0.006
ACAT1 (UniProt P24752),inactive: 0.018,inactive: -0.136,inactive: 0.001,inactive: -0.027,inactive: 0.05,inactive: -0.033,inactive: 0.04,inactive: 0,inactive: -0.006,inactive: -0.06,inactive: -0.024,inactive: -0.013,inactive: 0.029,inactive: -0.018,inactive: -0.016,inactive: 0.03,inactive: -0.009,inactive: -0.005,inactive: 0.026,inactive: 0.008
ACO2 (UniProt Q99798),inactive: -0.022,inactive: 0.042,inactive: -0.038,inactive: -0.058,inactive: -0.008,inactive: -0.054,inactive: 0.014,inactive: 0.02,inactive: -0.007,inactive: 0.009,inactive: -0.006,inactive: 0.002,inactive: -0.02,inactive: -0.078,inactive: 0,inactive: 0.036,inactive: 0.009,inactive: 0,inactive: -0.007,inactive: 0.024
ABRAXAS1 (UniProt Q6UWZ7),inactive: 0.014,inactive: -0.102,inactive: 0.025,inactive: 0.054,inactive: -0.051,inactive: 0.002,inactive: -0.024,inactive: -0.108,inactive: -0.044,inactive: -0.068,inactive: 0.027,inactive: 0.021,inactive: 0.055,inactive: -0.05,inactive: -0.017,inactive: 0.073,inactive: 0.137,inactive: 0.004,inactive: -0.053,inactive: -0.016
ABCB6 (UniProt Q9NP58),inactive: -0.017,inactive: 0.035,inactive: 0.016,inactive: -0.023,inactive: 0.239,inactive: 0.041,inactive: 0.007,inactive: 0.009,inactive: -0.004,inactive: -0.02,inactive: 0.008,inactive: -0.024,inactive: 0.026,inactive: -0.054,inactive: 0.027,inactive: -0.016,inactive: -0.001,inactive: -0.024,inactive: -0.059,inactive: 0.017
ACIN1 (UniProt E7EQT4),inactive: -0.093,inactive: 0.095,inactive: 0.003,inactive: -0.038,inactive: 0.06,inactive: 0.022,inactive: -0.033,inactive: -0.039,inactive: -0.011,inactive: 0.051,inactive: -0.001,inactive: -0.047,inactive: -0.1,active: -0.28,inactive: -0.021,inactive: 0.047,inactive: 0,inactive: 0.068,inactive: -0.063,inactive: 0.032
ABCE1 (UniProt P61221),inactive: 0.005,inactive: 0.059,inactive: 0.132,inactive: 0.007,inactive: -0.036,inactive: -0.03,inactive: -0.069,inactive: -0.019,inactive: -0.002,inactive: -0.028,inactive: -0.017,inactive: 0,inactive: 0.002,inactive: 0.021,inactive: 0.017,inactive: -0.014,inactive: -0.018,inactive: -0.022,inactive: 0.046,inactive: -0.021
AAMDC (UniProt Q9H7C9),inactive: 0.006,inactive: 0.034,inactive: 0.043,inactive: 0.115,inactive: -0.026,inactive: 0.001,inactive: -0.044,inactive: 0.04,inactive: -0.018,inactive: -0.091,inactive: 0.02,inactive: -0.046,inactive: 0.007,inactive: 0.025,inactive: -0.006,inactive: -0.045,inactive: 0.039,inactive: 0.022,inactive: -0.024,inactive: -0.014
AASDH (UniProt Q4L235),inactive: 0.029,inactive: -0.005,inactive: 0.023,inactive: -0.059,inactive: 0.017,inactive: 0.005,inactive: 0,inactive: 0.036,inactive: -0.075,inactive: -0.008,inactive: 0.038,inactive: 0.007,,inactive: -0.056,inactive: -0.036,inactive: -0.051,inactive: 0.006,,inactive: -0.052,inactive: 0.003
ABCB8 (UniProt Q9NUT2),inactive: 0.004,inactive: -0.109,inactive: 0.081,inactive: 0.04,inactive: 0.011,inactive: 0.047,inactive: -0.008,inactive: -0.122,inactive: -0.018,inactive: -0.136,inactive: -0.003,inactive: -0.044,inactive: -0.063,inactive: -0.034,inactive: 0.048,inactive: -0.066,inactive: 0.029,inactive: 0.046,inactive: -0.033,inactive: 0.053

# Reprinted from the listing for reference:
Target,log2 fold change (alvocidib),log2 fold change (Tubastatin A),log2 fold change [1],log2 fold change (defactinib),log2 fold change [2],log2 fold change (encorafenib),log2 fold change [3],log2 fold change (alisertib),log2 fold change [4],log2 fold change (gefitinib),log2 fold change (lapatinib),log2 fold change (pictilisib),log2 fold change (crizotinib),log2 fold change [5],log2 fold change (duvelisib),log2 fold change (gandotinib),log2 fold change (tozasertib),log2 fold change (doramapimod),log2 fold change (bafetinib),log2 fold change [6]
ACO1 (UniProt P21399),inactive: 0.021,inactive: 0.019,inactive: 0.006,inactive: -0.006,inactive: -0.048,inactive: 0.005,inactive: -0.05,inactive: -0.001,inactive: 0.001,inactive: -0.008,inactive: -0.006,inactive: -0.015,inactive: 0.038,inactive: -0.042,inactive: -0.004,inactive: -0.017,inactive: 0.037,inactive: 0.008,inactive: 0.032,inactive: -0.012
ABHD16A (UniProt O95870),inactive: 0.036,inactive: 0.066,inactive: -0.077,inactive: 0.009,inactive: 0.054,inactive: -0.074,active: 0.245,inactive: -0.029,inactive: -0.004,inactive: -0.021,inactive: 0.032,inactive: 0.028,inactive: 0.018,inactive: 0.006,inactive: -0.078,inactive: 0.081,inactive: -0.072,inactive: 0.013,inactive: 0.018,inactive: -0.021

# — the supplement of paper PMC10849652
